PubChem BioAssay AID1259308, NCATS – 2017
Assay: 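Genes whose loss raises luciferase production in HEK293 cells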 (primary screen). Cells: human HEK293 embryonic kidney cells stably expressing firefly luciferase (HEK-CMV-Luc2-Hygro). Knock-down reagent: single siRNA against human genes, 0.8 pmol siRNA per well. Timing: 72 h. Read-out: 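Luciferase light (ONE-Glo) measured on one replicate plate set and viability (CellTiter-Glo) on the other, scaled to a negative control siRNA, with robust z-scores and luciferase per cell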. Reading the numbers: total luciferase, z-score: higher = more reporter protein produced. Rule for the call: 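Active when the median/MAD z-score for overall luciferase is greater than 3; a gene was taken forward for validation with new siRNAs if at least two of its three siRNAs passed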. Calls: active = raised luciferase; inactive = no rise.
The deposit covers about 59,000 reagents; below is a random part of them. Over the whole deposit, about 1,510 (2.6%) are marked active. 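Calls use total luciferase alone and ignore viability, so some active siRNAs may act by altering cell number.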 Reagents against one gene are numbered here. Not all columns of the deposit are shown.

total luciferase, z-score, by gene knocked down and reagent
CXXC1: #1 0.98 inactive; #2 0.991 inactive; #3 3.02 active
ARR3: #1 0.405 inactive; #2 -0.875 inactive; #3 -0.843 inactive
NFKBIL1: #1 0.441 inactive; #2 -0.33 inactive; #3 0.0956 inactive
SDF2L1: #1 -0.211 inactive; #2 0.128 inactive; #3 -1.02 inactive
ZNF710: #1 0.011 inactive; #2 0.958 inactive; #3 0.983 inactive
YPEL2: #1 2.54 inactive; #2 -1.1 inactive; #3 1.6 inactive
MBTPS1: #1 1.6 inactive; #2 0.186 inactive; #3 -1.05 inactive
SPZ1: #1 -0.86 inactive; #2 -0.488 inactive; #3 -0.253 inactive
UGT2B4: #1 -0.0479 inactive; #2 -1.2 inactive; #3 -2.26 inactive
NBR1: #1 -1.88 inactive; #2 -0.714 inactive; #3 -1.74 inactive
NUTM2A-AS1: #1 4.48 active; #2 -2.36 inactive; #3 1.75 inactive
ADAMTS5: #1 -0.84 inactive; #2 0.78 inactive; #3 0.678 inactive
EXOG: #1 0.477 inactive; #2 -0.787 inactive; #3 -0.188 inactive

Reformatted: results already given
| gene knocked down | siRNA no. | total luciferase, z-score | Call |
| --- | --- | --- | --- |
| UGT2B4 | 2 | -1.2 | inactive |
| UGT2B4 | 3 | -2.26 | inactive |
| NBR1 | 1 | -1.88 | inactive |
| NBR1 | 2 | -0.714 | inactive |
| NBR1 | 3 | -1.74 | inactive |
